Results reported in article PMC9578396, “Intrinsic Antibacterial Activity of Xeruborbactam In Vitro: Assessing Spectrum and Mode of Action” (Antimicrobial Agents and Chemotherapy, 2022).

System: K. pneumoniae strain KPM1026a
Experiment: Fluorescence microscopy, cellular morphology
Format: cell-based, Klebsiella pneumoniae
Conditions: treated at 1× and 2× MIC, 1 to 2 h, 30°C
Protocol: Single colonies of K. pneumoniae strain KPM1026a, A. baumannii strain ATCC 17978, and P. aeruginosa strain PAM1154 were picked from LB agar plates, inoculated in cation-adjusted Mueller-Hinton broth (CA-MHB), and incubated overnight at 30°C with rolling. Overnight cultures were diluted into fresh CA-MHB and incubated at 30°C, with rolling, until they reached an OD600 of ≈0.12 to 0.15 (equivalent to ~2 × 10^8 CFU/mL). Samples were then treated with compounds and incubated at 30°C, with rolling. After 1 or 2 h of treatment, cells were collected and stained with a dye mix containing FM4-64 (1 μg/mL), DAPI (4′,6-diamidino-2-phenylindole) (2 μg/mL), and SYTOX green (0.5 μM) (Molecular Probes, Invitrogen, or Thermo Fisher Scientific). Cells were transferred onto an agarose pad containing 1.2% agarose and 20% LB medium for microscopy. Microscopy was performed as previously described ([34]).

CC1=C(C(=O)O)N2C(=O)[C@@H](NC(=O)[C@H](N)c3ccccc3)[C@H]2SC1 [cephalexin]
cellular morphology: filamentation
